US20110158908A1, “CYCLOSPORIN A-BINDING PROTEIN” (Sapporo Medical University, priority 2007, published 2011)
No constants are given. Whether binding was seen depends on the method and setting. For some of these results: In cells and extracts the contact can be indirect. Some entries that bind do so weakly or less than the wild type. For some of these results: Sequences can lack the tags named with a protein.

Protein sequences, listed by entry. Tags and fused reporters are not part of them. Residues count along the entry.
UniProt P23284, residues 34-216: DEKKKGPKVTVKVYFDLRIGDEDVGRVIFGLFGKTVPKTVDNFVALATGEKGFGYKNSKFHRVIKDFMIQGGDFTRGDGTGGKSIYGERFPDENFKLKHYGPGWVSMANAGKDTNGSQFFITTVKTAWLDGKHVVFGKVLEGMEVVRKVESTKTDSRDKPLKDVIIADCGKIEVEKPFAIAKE

Legend:
cyclophilin B (CyPB) [1] = target: cyclophilin B (CyPB) (UniProt P23284); assay: GST pull-down (recap of the in vitro experiment)
cyclophilin B (CyPB) [2] = target: cyclophilin B (CyPB) (UniProt P23284); assay: GST pull-down with glutathione Sepharose, 35S-labeled in vitro synthesized protein, autoradiography
cyclophilin B (CyPB) [3] = target: cyclophilin B (CyPB) (UniProt P23284); assay: GST pull-down of 35S-labelled in vitro synthesized CyPB with GST-CSABP on glutathione Sepharose, CsA added to the co-culture, SDS-PAGE, autoradiography
cyclophilin B (CyPB) [4] = target: cyclophilin B (CyPB) (UniProt P23284); assay: co-precipitation from MH14 cell lysate with polyU Sepharose, western blot

B1: CSABP-GST fusion protein (protein, not shown: a dimerising Fc or GST)
chain: MSRPSSVSPRQPAPGGGGGGGPSPCGPGGGGRAKGLKDIRIDEEVKIAVNIALERFRYGDQREMEFPSSLTSTERAFIHRLSQSLGLVSKSKGKGANRYLTVKKKDGSETAHAMMTCNLTHNTKHAVRSLIQRFPVTNKERTELLPKTERGNVFAVEAENREMSKTSGRLNNGIPQIPVKRGESEFDSFRQSLPVFEKQEEIVKIIKENKVVLIVGETGSGKTTQIPQFLLDDCFKNGIPCRIFCTQPRRLAAIAVAERVAAERRERIGQTIGYQIRLESRVSPKTLLTFCTNGVLLRTLMAGDSTLSTVTHVIVDEVHERDRFSDFLLTKLRDLLQKHPTLKLILSSAALDVNLFIRYFGSCPVIYIQGRPFEVKEMFLEDILRTTGYTNKEMLKYKKEKQQEEKQQTTLTEWYSAQENSFKPESQRQRTVLNVTDEYDLLDDGGDAVFSQLTEKDVNCLEPWLIKEMDACLSDIWLHKDIDAFAQVFHLILTENVSVDYRHSETSATALMVAAGRGFASQVEQLISMGANVHSKASNGWMALDWAKHFGQTEIVDLLESYSASLEFGNLDESSLVQTNGSDLSAEDRELLKAYHHSFDDEKVDLDLIMHLLYNICHSCDAGAVLIFLPGYDEIVGLRDRILFDDKRFADNTHRYQVFMLHSNMQTSDQKKVLKNPPAGVRKIILSTNIAETSITVNDVVFVIDSGKVKEKSFDALNFVTMLKMVWISKASAIQRKGRAGRCRPGICFRLFSRLRFQNMLEFQTPELLRMPLQELCLHTKLLAPVNCPIADFLMKAPEPPPALIVRNAVQMLKTIDAMDTWEDLTELGYHLADLPVEPHLGKMVLCAVVLKCLDPILTIACTLAYRDPFVLPTQASQKRAAMLCRKRFTAGAFSDHMALLRAFQAWQKARSDGWERAFCEKNFLSQATMEIIIGMRTQLLGQLRASGFVRARGGGDIRDVNTNSENWAVVKAALVAGMYPNLVHVDRENLVLTGPKEKKVRFHPASVLSQPQYKKIPPANGQAAAIKALPTDWLIYDEMTRAHRIANIRCCSAVTPVTILVFCGPARLASNALQEPSSFRVDGIPNDSSDSEMEDKTTANLAALKLDEWLHFTLEPEAASLLLQLRQKWHSLFLRRMRAPSKPWSQVDEATIRAIIAVLSTEEQSAGLQQPSGIGQRPRPMSSEELPLASSWRSNNSRKSSADTEFSDECTTAERVLMKSPSPALHPPQKYKDRGILHPKRGTEDRSDQSSLKSTDSSSYPSPCASPSPPSSGKGSKSPSPRPNMPVRYFIMKSSNLRNLEISQQKGIWSTTPSNERKLNRAFWESSIVYLVFSVQGSGHFQGFSRMSSEIGREKSQDWGSAGLGGVFKVEWIRKESLPFQFAHHLLNPWNDNKKVQISRDGQELEPLVGEQLLQLWERLPLGEKNTTD
Cyclophilin B (CyPB) [1]
  binding: binds
Cyclophilin B (CyPB) [2]
  binding: binds
Cyclophilin B (CyPB) [3]
  binding: binds

B2: CSABP (cyclosporin A-binding protein), endogenous in MH14 cells (enzyme)
chain: MSRPSSVSPRQPAPGGGGGGGPSPCGPGGGGRAKGLKDIRIDEEVKIAVNIALERFRYGDQREMEFPSSLTSTERAFIHRLSQSLGLVSKSKGKGANRYLTVKKKDGSETAHAMMTCNLTHNTKHAVRSLIQRFPVTNKERTELLPKTERGNVFAVEAENREMSKTSGRLNNGIPQIPVKRGESEFDSFRQSLPVFEKQEEIVKIIKENKVVLIVGETGSGKTTQIPQFLLDDCFKNGIPCRIFCTQPRRLAAIAVAERVAAERRERIGQTIGYQIRLESRVSPKTLLTFCTNGVLLRTLMAGDSTLSTVTHVIVDEVHERDRFSDFLLTKLRDLLQKHPTLKLILSSAALDVNLFIRYFGSCPVIYIQGRPFEVKEMFLEDILRTTGYTNKEMLKYKKEKQQEEKQQTTLTEWYSAQENSFKPESQRQRTVLNVTDEYDLLDDGGDAVFSQLTEKDVNCLEPWLIKEMDACLSDIWLHKDIDAFAQVFHLILTENVSVDYRHSETSATALMVAAGRGFASQVEQLISMGANVHSKASNGWMALDWAKHFGQTEIVDLLESYSASLEFGNLDESSLVQTNGSDLSAEDRELLKAYHHSFDDEKVDLDLIMHLLYNICHSCDAGAVLIFLPGYDEIVGLRDRILFDDKRFADNTHRYQVFMLHSNMQTSDQKKVLKNPPAGVRKIILSTNIAETSITVNDVVFVIDSGKVKEKSFDALNFVTMLKMVWISKASAIQRKGRAGRCRPGICFRLFSRLRFQNMLEFQTPELLRMPLQELCLHTKLLAPVNCPIADFLMKAPEPPPALIVRNAVQMLKTIDAMDTWEDLTELGYHLADLPVEPHLGKMVLCAVVLKCLDPILTIACTLAYRDPFVLPTQASQKRAAMLCRKRFTAGAFSDHMALLRAFQAWQKARSDGWERAFCEKNFLSQATMEIIIGMRTQLLGQLRASGFVRARGGGDIRDVNTNSENWAVVKAALVAGMYPNLVHVDRENLVLTGPKEKKVRFHPASVLSQPQYKKIPPANGQAAAIKALPTDWLIYDEMTRAHRIANIRCCSAVTPVTILVFCGPARLASNALQEPSSFRVDGIPNDSSDSEMEDKTTANLAALKLDEWLHFTLEPEAASLLLQLRQKWHSLFLRRMRAPSKPWSQVDEATIRAIIAVLSTEEQSAGLQQPSGIGQRPRPMSSEELPLASSWRSNNSRKSSADTEFSDECTTAERVLMKSPSPALHPPQKYKDRGILHPKRGTEDRSDQSSLKSTDSSSYPSPCASPSPPSSGKGSKSPSPRPNMPVRYFIMKSSNLRNLEISQQKGIWSTTPSNERKLNRAFWESSIVYLVFSVQGSGHFQGFSRMSSEIGREKSQDWGSAGLGGVFKVEWIRKESLPFQFAHHLLNPWNDNKKVQISRDGQELEPLVGEQLLQLWERLPLGEKNTTD
Cyclophilin B (CyPB) [4]
  binding: binds
